Source: PubChem BioAssay AID493014 (National Center for Advancing Translational Sciences (NCATS), 2011)
Some of the results follow. The main result of the screen is listed elsewhere. These columns were measured beside it and carry no call. The list favours compounds with an active or inconclusive main result. The note in brackets gives the kind of curve behind each potency; many fits are weak.

Experiment: qHTS Assay to Find Inhibitors of Chronic Active B-Cell Receptor Signaling
Settings: ABC-DLBCL IkBa-CBG/CBR reporter, luminescence ratio (green luciferase fused to IkBa over red control in TMD8 lymphoma cells), 4 h
Summary of the method: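 Cell line TMD8 (human ABC DLBCL), stably expressing tet-inducible CBG68-IkBa fusion and CBR; IMDM/0.5% FBS; cpd up to 46 uM; dox induction, 4 h, 37C/5% CO2; dual luminescence; green/red ratio; MG132 control.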

[1] = measured here: IkBa-CBG green luminescence
[2] = measured here: CBR red luminescence, cell number

SMILES	AC50 [1]	AC50 [2]
CCC(C)NC(=O)c1ccc(C2SCC(=O)N2Cc2ccccc2)cc1 (stereo not given)	12.6 µM [rising, partial curve, poor fit]	
O=C(CSc1nc2ncccc2[nH]1)c1ccc2c(c1)OCO2		14.1 µM [falling, single point]
COc1ccc(C2CC(C(F)(F)F)n3nc(C(=O)NCc4c(C)nn(C)c4C)c(Cl)c3N2)cc1 (stereo not given)		29.1 µM [falling, single point]
O=C(Cn1cnc2ccccc21)Nc1ccc(F)c(F)c1		12.6 µM [falling, partial curve]
O=C(/C=C/c1ccc[nH]1)c1ccc(F)cc1		35.5 µM [falling, single point]
COc1ccccc1NC(=O)CCc1nc2sc3c(c2c(=O)[nH]1)CCCC3		16.4 µM [falling, single point]
CCN(CC)C(=O)c1cn(CC)c(=O)c2cc(OC)c(OC)cc12		0.517 µM [rising, full curve, poor fit]
COc1cccc(-c2nc(CS(=O)(=O)CC(=O)NCc3ccc4c(c3)OCO4)c(C)o2)c1		20 µM [falling, partial curve, poor fit]
N#Cc1ccc(/C=C/C(=O)c2ccc3c(c2)OCO3)cc1		6.31 µM [falling, full curve, poor fit]
COc1ccc2c(CC(=O)Nc3ccc(OC)c(S(=O)(=O)N4CCOCC4)c3)coc2c1		16.4 µM [rising, partial curve, poor fit]
CC1CCC/C(=N\Nc2ccc(Cl)c(C(=O)O)c2)C1 (stereo not given)		2.06 µM [falling, full curve]
CC1CCCCN1S(=O)(=O)c1ccccc1[N+](=O)[O-] (stereo not given)	29.1 µM [rising, partial curve, poor fit]	18.4 µM [falling, single point]
O=C(Nc1cccnc1Cl)C1=NN(c2ccccc2)C(=O)CC1		3.55 µM [rising, partial curve, poor fit]
C/C(=N\NC(=O)c1ccc2c(c1)OCO2)c1ccc(C(=O)O)s1		2.51 µM [falling, full curve]
Cn1cc(CN2CCC(O)CC2)c(-c2ccc(Oc3ccccc3)cc2)n1		0.178 µM [rising, partial curve, poor fit]
O=C(CSc1ncnc2ccccc12)NCCc1ccccc1		17.8 µM [rising, partial curve, poor fit]
N#Cc1c(NC(=S)NC(=O)c2ccccc2)sc2c1CCC2		0.517 µM [rising, full curve, poor fit]
CCn1nc(C)c(CNC(=O)c2cc(COc3ccccc3SC)on2)c1C		35.5 µM [falling, single point]
O=C(Nc1ccccc1C(F)(F)F)c1cc(-c2ccccc2O)on1		0.058 µM [falling, full curve, poor fit]
COc1ccc(CCNC(=O)c2cc(S(=O)(=O)N3CCC4(CC3)OCCO4)ccc2F)cc1OC		12.6 µM [rising, single point]
CS(=O)(=O)c1ccc2nc(NC(=O)CN3CCCCCC3)sc2c1		10 µM [rising, partial curve, poor fit]

SMILES	AC50 [1]	AC50 [2]
Cc1ccc(C)c(N2C(=O)N(Cc3ccccc3C)c3ccccc3S2(=O)=O)c1		7.08 µM [falling, full curve, poor fit]
CCn1cc(C2=NC(c3ccccc3)CO2)c2ccccc21 (stereo not given)		2.91 µM [rising, partial curve, poor fit]
CCOc1ccccc1C1C(C(=O)Nc2ccccc2OC)=C(C)Nc2nnnn21 (stereo not given)		32.6 µM [falling, single point]
COc1ccc(C#Cc2c(-c3ccccc3)n(C)c3ccccc23)cc1		0.517 µM [falling, partial curve, poor fit]
O=C1N[C@@H](Cc2ccccc2)COC(=O)[C@H](Cc2ccc(F)cc2)C/C=C\C[C@H]1CC(=O)N(CCO)Cc1ccccc1		20.6 µM [falling, partial curve, poor fit]
C[C@H]1CN([C@@H](C)CO)C(=O)c2cccc(NC(=O)Nc3ccc(C(F)(F)F)cc3)c2O[C@@H]1CN(C)S(=O)(=O)c1ccc(Cl)cc1		20.6 µM [falling, partial curve]
O=C(Nc1ccc(N2CCN(c3ncccc3C(F)(F)F)CC2)nc1)c1cccs1	35.5 µM [rising, partial curve, poor fit]	35.5 µM [falling, single point]
CCOc1nnnc2c1sc1nc(N3CCOCC3)c3c(c12)CCCC3		32.6 µM [falling, single point]
O=C(c1cc(C(=O)N2CCOCC2)c2nc3ccccc3n2c1)c1ccccc1O		7.08 µM [rising, partial curve, poor fit]
O=C(COc1cccc(Br)c1)Nc1ccc(N2CCOCC2)cc1N1CCOCC1		25.9 µM [rising, single point]
COCCN=C1N[C@@H](c2cccc(C(F)(F)F)c2)C(C(=O)OC)=C(C)N1Cc1ccccc1		35.5 µM [falling, single point]
CN(C)c1cccc(C(=O)NCc2ccccc2Cl)c1		20 µM [falling, partial curve, poor fit]
COc1ccc(-c2cc(C(=O)N3CCCCC3)no2)cc1OC		1.41 µM [rising, partial curve]
COc1ccc2cc3c(N)nn(C(=O)Cc4ccccc4OC)c3nc2c1	16.4 µM [rising, partial curve, poor fit]	
O=C(NCc1ccco1)C1CC(c2cccc([N+](=O)[O-])c2)=NO1 (stereo not given)		14.1 µM [falling, single point]
Cc1ccc(C(=O)NCC(=O)N(C)Cc2cccc(F)c2)s1		29.1 µM [falling, single point]
O=C(N/N=C/c1ccc(OC(=O)c2cccs2)cc1)c1ccc(F)cc1		22.4 µM [falling, single point]
COC(=O)c1ccc(NC(=O)Nc2ccccc2C)cc1		2.51 µM [falling, partial curve, poor fit]
COc1ccc(NC(=O)c2nc(C)c(C3(C)CC(c4ccccc4)=NO3)s2)cc1 (stereo not given)	20 µM [falling, single point]	8.91 µM [rising, partial curve]
COc1ccc(-c2nc(C)ncc2-c2ccc(Cl)cc2)c(O)c1		14.1 µM [falling, single point]
C(=N\N1CCN(c2ccccc2)CC1)/c1ccccc1		12.6 µM [rising, partial curve, poor fit]

SMILES	AC50 [1]	AC50 [2]
CCCCOc1ccc(-c2nnc(-c3ccco3)o2)cc1		11.2 µM [rising, partial curve, poor fit]
Cc1c(CCC(=O)O)c(=O)n2c([nH]c3ccccc32)c1C#N		0.103 µM [falling, full curve]
Cc1cc(C)cc(NC(=O)C2CCCN(c3nccc(C)n3)C2)c1 (stereo not given)		23.1 µM [falling, partial curve, poor fit]
O=C1C=C(c2ccc3c(c2)oc2ccccc23)C[C@@H](c2ccc3c(c2)OCO3)C1		0.651 µM [rising, full curve, poor fit]
COc1ccc(CCNC(=O)CCCCCN2C(=O)[C@@H]3Cc4ccccc4CN3C2=O)cc1OC		2.82 µM [falling, partial curve, poor fit]
Cc1ccc(NC(=O)C2CCCCC2)cc1C		18.4 µM [rising, partial curve, poor fit]
CCOC(=O)c1cc2cc3ccccc3cc2oc1=O		0.562 µM [rising, full curve]
O=C(N/N=C/c1ccccc1)c1cc(=O)[nH]c2ccccc12		9.2 µM [rising, partial curve]
CCc1ccc(S(=O)(=O)/N=C2\C=C(NS(=O)(=O)c3ccccc3)C(=O)c3ccccc32)cc1		7.08 µM [falling, partial curve, poor fit]
Cc1cccc(NC(=O)c2cc(NC(=O)c3ccco3)ccc2Cl)n1	10.3 µM [falling, partial curve, poor fit]	
CCC(=O)c1cn(CC(=O)Nc2cccc(C)c2)c2ccccc12		14.1 µM [rising, single point]
CCOC(=O)N1CCC(N2CCCC(CO)(Cc3cccc(Cl)c3)C2)CC1 (stereo not given)		35.5 µM [falling, single point]
C=CCNC(=O)c1cc2cccc(OC)c2oc1=O		11.2 µM [falling, partial curve]
O=c1oc2ccccc2c(O)c1C=Nc1cccnc1		8.91 µM [falling, partial curve]
Cc1ccccc1NC(=O)CSC1=C(C#N)C(c2ccsc2)CC(=O)N1 (stereo not given)		16.4 µM [falling, partial curve, poor fit]
O=C(Nc1nccs1)c1cc(-c2ccncc2)nc2ccccc12		0.708 µM [falling, full curve]
COc1ccc(-c2noc(CN3CCOCC3)n2)cc1OC		18.4 µM [falling, partial curve, poor fit]
COc1cc(Cl)ccc1OCc1cc(C(=O)N2CCCCCCC2)no1		2 µM [rising, partial curve, poor fit]
O=[N+]([O-])C1C(c2ccccc2)=NOC1c1ccccc1O (stereo not given)		7.08 µM [falling, partial curve]
C=CCn1c(Cc2cccc3ccccc23)n[nH]c1=S	29.1 µM [falling, single point]	

A stretch from further up:
SMILES	AC50 [1]	AC50 [2]
O=C1C=C(c2ccc3c(c2)oc2ccccc23)C[C@@H](c2ccc3c(c2)OCO3)C1		0.651 µM [rising, full curve, poor fit]
COc1ccc(CCNC(=O)CCCCCN2C(=O)[C@@H]3Cc4ccccc4CN3C2=O)cc1OC		2.82 µM [falling, partial curve, poor fit]
Cc1ccc(NC(=O)C2CCCCC2)cc1C		18.4 µM [rising, partial curve, poor fit]
CCOC(=O)c1cc2cc3ccccc3cc2oc1=O		0.562 µM [rising, full curve]
O=C(N/N=C/c1ccccc1)c1cc(=O)[nH]c2ccccc12		9.2 µM [rising, partial curve]
